Assay results published in publication PMC11612460, “Development of a novel gut microphysiological system that facilitates assessment of drug absorption kinetics in gut” (Scientific Reports, 2024).

Legend:
[1] = in vitro; settings: human, Papp, apical to basal
Experimental: (§1) The seeding medium and culture medium of hiSIECs for LLI and ALI were obtained from FUJIFILM Corporation. hiSIECs were cultured according to the manufacturer’s instructions. Briefly, Fluid3D-X® devices were coated with Corning Matrigel GFR Basement Membrane Matrix (Corning) on the day before seeding the cells. hiSIECs were seeded onto a Fluid3D-X® device at 5.3 × 10^5 cells/MPS and incubated for 5.5 h. The seeding medium was added to the device, and cell culture was started in flow for 11 days at 20 pps 1/4 (3.8 µL/min). After one day, the seeding medium was replaced with LLI culture medium, and the medium was changed every two or three days. ALI culture was performed using the same method as the LLI culture, but the apical channel medium was removed to expose the cells to air on day 4. On day 11 after seeding, the gut MPS was used for the assay.
(§2) Eight gut chips were divided into two groups: with and without inhibitors. […] Because all steps were performed under static conditions, 200 µL of buffer was transferred from the outlet to the inlet by a micropipette before collection of each sample. Serial sampling (150 µL) was performed at following time points (0, 30, 60, 90, and 120 min) from both the donor and acceptor sides. Equal volumes of fresh buffer were added after the sample collection. At the end of the experiment (120 min), the cell lysates were collected. The concentrations of drugs and/or metabolites in the transport buffer and cells were measured by LC-MS/MS. […]
(§3) The apparent permeability coefficient (Papp, cm/s) was calculated using Eq. (1):1 [drawing 1] […]
(§4) The intestinal availability (Fg) of CYP3A substrates was calculated based on a previous report[35] using the following equation:3 [drawing 3] […]
(§5) The specimens were deproteinated with 3-times volumes of acetonitrile and centrifuged to obtain supernatants. For quantification of the drug concentration on the donor side, the specimens were further diluted 20 times with acetonitrile. […]

[2] = test system: hiSIECs monolayers in gut MPS/Fluid3D-X; test: in vitro; settings: ketoconazole 10 µM, PSC833 5 µM, Ko143 5 µM
Experimental: as §1, §2, §3, §4, §5

[3] = test system: hiSIECs monolayers in gut MPS/Emulate; test: Permeability / donor concentration of test drugs using gut MPS/Emulate (fluidic conditions)

Papp at 120 min ([1]; inhibitor (+)): 0.865 ± 0.173 ×10⁻⁶ cm/s
Papp at 120 min ([1]; inhibitor (-)): 1.31 ± 0.19 ×10⁻⁶ cm/s
effect of inhibitor cocktail on apical-to-basal transport [2]: sensitive to the inhibitors
effect of inhibitor cocktail on apical-to-basal transport [3]: inhibitor-sensitive
Compound: CC(C)NCC(O)COc1ccc(CC(N)=O)cc1 (stereo not shown) [Atenolol]
